Assay results as given in paper PMC7449970.
These are yes or no findings as the source states them, for the method shown. Binding seen in cells or lysates may run through a third protein. Some results given as binding are weak or reduced against the parent protein; the word gives no strength. For part of these data: Where a sequence is shown, tags or fusion partners need not be part of it.

Chains of the proteins cited; added tags and fusions are not shown. Residues count along the entry.
UniProt P37173, residues 23-567: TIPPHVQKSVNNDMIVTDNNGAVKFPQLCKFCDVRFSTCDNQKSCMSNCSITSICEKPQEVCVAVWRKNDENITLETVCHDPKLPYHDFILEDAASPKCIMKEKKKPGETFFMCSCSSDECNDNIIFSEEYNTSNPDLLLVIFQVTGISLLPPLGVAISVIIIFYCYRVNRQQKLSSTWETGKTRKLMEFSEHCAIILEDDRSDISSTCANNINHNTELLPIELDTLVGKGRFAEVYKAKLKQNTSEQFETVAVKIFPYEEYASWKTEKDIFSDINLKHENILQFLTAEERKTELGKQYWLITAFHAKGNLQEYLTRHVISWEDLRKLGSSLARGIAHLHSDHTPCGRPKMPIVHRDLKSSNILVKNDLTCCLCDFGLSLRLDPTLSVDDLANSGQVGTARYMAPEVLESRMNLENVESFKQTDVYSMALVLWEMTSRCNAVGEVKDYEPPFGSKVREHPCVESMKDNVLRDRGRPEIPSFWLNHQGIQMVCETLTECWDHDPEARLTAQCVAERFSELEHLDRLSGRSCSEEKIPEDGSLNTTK
UniProt Q8NBS9, residues 33-432: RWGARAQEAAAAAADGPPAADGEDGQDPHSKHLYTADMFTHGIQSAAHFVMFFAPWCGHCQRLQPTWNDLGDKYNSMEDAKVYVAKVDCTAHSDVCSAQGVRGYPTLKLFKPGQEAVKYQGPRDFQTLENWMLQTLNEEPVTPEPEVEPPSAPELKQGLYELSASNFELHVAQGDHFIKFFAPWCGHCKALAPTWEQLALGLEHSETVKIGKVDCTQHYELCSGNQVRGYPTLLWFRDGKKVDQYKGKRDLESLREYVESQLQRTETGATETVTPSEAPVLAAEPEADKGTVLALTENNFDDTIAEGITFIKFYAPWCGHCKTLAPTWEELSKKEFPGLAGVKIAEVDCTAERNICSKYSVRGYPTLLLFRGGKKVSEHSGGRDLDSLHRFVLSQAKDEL

Tests used:
[1] = target: T1, human TGFBR1-Myc-Flag-tagged (human) (UniProt P36897); test: co-IP; lysates of NIH-3T3 fibroblasts transfected with mRNAs for 4 h; IP with anti-Flag or mouse IgG isotype control on protein G magnetic beads, and IP of WT or mutant TXNDC5 (TXNDC5 or HA); immunoblot
T1 sequence: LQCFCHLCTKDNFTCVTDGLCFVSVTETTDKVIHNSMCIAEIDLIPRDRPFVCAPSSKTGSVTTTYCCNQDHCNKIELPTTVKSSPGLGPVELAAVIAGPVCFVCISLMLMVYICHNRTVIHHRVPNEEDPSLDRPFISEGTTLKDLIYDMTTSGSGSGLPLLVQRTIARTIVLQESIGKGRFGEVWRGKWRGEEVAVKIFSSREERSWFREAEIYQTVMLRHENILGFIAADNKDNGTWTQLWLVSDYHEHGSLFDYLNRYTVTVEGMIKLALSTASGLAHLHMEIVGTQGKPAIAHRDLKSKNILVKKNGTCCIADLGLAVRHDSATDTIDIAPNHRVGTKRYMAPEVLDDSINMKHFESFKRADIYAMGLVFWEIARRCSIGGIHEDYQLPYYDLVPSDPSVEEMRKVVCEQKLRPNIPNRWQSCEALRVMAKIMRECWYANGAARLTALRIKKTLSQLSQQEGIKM

[2] = target: T2, TGFβ receptor 1 (TGFBR1), endogenous in human pulmonary fibroblasts (human (endogenous in HPF)) (UniProt P36897); test: proximity ligation; Duolink in situ PLA on fixed, permeabilised HPF; rabbit anti-TXNDC5 with mouse anti-TGFBR1 or mouse anti-TGFBR2; slides without primary antibodies as negative control
T2 sequence: T1 sequence

[3] = target: TGFβ receptor 2 (TGFBR2), endogenous in human pulmonary fibroblasts (human (endogenous in HPF)) (UniProt P37173); test: as above

## Human WT TXNDC5 (mRNA transfected into NIH-3T3 fibroblasts) (from UniProt Q8NBS9 33-432)
[1]
  binding: binds

## thioredoxin domain containing 5 (TXNDC5), endogenous in human pulmonary fibroblasts (from UniProt Q8NBS9 33-432)
[2]
  binding: binds
[3]
  binding: no binding
